The list shows a part of the results.
What was measured:
Assay in all cases: log2 fold change, soluble protein after heating vs DMSO (PISA); higher = thermal stabilisation; K562 lysate, 10 uM; active = over 0.2 and 3.5 SD of the protein, either way, in both replicates (recomputed)
nilotinib = compound: Cc1cn(-c2cc(NC(=O)c3ccc(C)c(Nc4nccc(-c5cccnc5)n4)c3)cc(C(F)(F)F)c2)cn1 [nilotinib]
Procedure, shortened: (§1)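 Soluble protein was defined as the supernatant remaining after 21,000xg for 90 min, following pooling of heated aliquots and adjustment to 0.5% NP-40 at 4°C. Before that, crude K562 extract at 1 mg/mL protein in PBS pH 7.4 with 1 mM MgCl2 was treated with 10 μM compound for 30 min and heated for 3 min across 48°C-58°C. Quantification used TMTpro 16plex LC-MS/MS with channel sums equalised, and values are log-two fold changes in thermal stability relative to solvent controls from duplicates.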

By UniProt entry, the sequences of proteins in these tests, tags left out. Where a name states a change or a piece, a line headed by the entry shows the natural chain unless it says otherwise.
UniProt A8MWY0: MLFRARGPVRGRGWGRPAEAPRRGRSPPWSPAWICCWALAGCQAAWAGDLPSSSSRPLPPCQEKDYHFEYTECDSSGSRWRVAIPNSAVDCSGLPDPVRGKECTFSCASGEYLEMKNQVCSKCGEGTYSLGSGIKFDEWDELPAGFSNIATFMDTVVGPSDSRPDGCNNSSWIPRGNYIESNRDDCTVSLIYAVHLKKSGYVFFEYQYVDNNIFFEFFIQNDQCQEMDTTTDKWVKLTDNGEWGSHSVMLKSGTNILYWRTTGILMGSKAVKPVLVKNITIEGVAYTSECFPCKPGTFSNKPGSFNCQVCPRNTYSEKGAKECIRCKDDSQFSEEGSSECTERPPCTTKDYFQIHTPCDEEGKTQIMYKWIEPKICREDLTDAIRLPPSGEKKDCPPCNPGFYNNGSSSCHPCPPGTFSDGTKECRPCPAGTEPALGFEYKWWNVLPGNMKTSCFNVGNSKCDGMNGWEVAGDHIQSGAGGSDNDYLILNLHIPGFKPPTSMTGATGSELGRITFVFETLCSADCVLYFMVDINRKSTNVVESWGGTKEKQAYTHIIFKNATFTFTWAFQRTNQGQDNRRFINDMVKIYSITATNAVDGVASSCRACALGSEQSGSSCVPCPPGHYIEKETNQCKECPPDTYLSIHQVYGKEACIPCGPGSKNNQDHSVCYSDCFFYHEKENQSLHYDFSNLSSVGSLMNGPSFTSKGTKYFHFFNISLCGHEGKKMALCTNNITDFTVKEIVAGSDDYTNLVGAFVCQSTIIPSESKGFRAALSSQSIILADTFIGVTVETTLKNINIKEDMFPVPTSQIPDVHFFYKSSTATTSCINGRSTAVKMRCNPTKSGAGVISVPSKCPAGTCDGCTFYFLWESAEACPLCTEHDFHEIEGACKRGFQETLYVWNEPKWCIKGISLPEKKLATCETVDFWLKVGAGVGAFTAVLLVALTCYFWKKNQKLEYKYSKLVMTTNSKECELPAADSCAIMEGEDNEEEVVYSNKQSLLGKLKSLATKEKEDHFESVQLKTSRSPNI
UniProt Q8N4N3: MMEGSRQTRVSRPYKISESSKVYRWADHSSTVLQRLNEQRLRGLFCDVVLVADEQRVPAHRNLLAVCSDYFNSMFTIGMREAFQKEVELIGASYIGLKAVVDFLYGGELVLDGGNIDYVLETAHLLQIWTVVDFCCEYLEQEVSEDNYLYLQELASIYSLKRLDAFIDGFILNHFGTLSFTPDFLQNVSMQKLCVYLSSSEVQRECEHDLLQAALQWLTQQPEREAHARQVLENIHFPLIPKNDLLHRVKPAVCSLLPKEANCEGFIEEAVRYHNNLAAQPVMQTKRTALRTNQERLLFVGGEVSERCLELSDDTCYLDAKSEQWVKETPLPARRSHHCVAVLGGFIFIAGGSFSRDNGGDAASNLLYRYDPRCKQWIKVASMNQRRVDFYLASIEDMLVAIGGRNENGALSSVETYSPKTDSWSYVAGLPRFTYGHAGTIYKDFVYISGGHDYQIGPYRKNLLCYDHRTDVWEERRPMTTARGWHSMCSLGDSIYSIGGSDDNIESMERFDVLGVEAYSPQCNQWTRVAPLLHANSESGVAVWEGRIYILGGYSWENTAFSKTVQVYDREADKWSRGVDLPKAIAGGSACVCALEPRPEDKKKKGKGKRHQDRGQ
UniProt Q8IZA0: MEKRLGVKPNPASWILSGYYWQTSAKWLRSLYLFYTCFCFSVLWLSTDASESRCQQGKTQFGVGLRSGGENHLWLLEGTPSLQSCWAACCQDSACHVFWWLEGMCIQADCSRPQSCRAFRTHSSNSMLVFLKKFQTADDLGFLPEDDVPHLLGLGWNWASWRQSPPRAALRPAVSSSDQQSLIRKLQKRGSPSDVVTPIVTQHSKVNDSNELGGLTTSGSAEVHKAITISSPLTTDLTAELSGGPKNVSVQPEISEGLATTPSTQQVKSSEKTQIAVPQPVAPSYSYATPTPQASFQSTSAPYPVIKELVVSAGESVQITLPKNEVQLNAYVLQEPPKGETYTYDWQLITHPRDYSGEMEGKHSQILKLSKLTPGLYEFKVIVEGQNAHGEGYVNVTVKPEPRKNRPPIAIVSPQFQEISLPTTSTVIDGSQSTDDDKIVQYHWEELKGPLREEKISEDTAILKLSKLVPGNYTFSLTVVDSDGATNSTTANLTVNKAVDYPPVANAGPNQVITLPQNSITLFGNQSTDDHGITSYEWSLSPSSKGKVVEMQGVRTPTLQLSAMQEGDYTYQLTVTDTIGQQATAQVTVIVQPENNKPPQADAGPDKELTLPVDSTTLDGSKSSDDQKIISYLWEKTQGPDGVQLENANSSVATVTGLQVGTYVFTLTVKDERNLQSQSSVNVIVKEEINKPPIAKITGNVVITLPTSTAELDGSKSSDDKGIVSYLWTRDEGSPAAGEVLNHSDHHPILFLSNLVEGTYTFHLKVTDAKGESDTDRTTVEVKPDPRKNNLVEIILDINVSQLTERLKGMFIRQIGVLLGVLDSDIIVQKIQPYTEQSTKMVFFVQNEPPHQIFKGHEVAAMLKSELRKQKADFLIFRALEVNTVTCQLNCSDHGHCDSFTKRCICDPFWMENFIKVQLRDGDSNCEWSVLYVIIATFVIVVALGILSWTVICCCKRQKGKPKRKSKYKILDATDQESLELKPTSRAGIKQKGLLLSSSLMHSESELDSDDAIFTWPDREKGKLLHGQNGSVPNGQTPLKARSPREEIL
UniProt P52294, whole entry, looked up: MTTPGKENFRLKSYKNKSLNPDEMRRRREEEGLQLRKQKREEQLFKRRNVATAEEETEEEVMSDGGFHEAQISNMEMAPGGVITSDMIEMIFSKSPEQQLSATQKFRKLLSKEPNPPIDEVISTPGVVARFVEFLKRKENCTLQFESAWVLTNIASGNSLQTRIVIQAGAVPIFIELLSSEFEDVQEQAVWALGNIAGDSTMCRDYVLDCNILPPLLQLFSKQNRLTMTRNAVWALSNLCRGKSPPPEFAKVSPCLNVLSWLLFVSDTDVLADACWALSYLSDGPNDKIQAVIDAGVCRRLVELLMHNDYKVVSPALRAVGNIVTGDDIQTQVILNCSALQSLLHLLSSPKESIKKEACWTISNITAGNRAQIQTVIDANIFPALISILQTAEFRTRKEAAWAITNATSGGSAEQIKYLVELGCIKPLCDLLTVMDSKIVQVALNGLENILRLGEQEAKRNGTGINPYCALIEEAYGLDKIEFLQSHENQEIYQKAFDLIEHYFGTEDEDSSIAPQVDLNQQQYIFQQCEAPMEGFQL
UniProt Q8N371: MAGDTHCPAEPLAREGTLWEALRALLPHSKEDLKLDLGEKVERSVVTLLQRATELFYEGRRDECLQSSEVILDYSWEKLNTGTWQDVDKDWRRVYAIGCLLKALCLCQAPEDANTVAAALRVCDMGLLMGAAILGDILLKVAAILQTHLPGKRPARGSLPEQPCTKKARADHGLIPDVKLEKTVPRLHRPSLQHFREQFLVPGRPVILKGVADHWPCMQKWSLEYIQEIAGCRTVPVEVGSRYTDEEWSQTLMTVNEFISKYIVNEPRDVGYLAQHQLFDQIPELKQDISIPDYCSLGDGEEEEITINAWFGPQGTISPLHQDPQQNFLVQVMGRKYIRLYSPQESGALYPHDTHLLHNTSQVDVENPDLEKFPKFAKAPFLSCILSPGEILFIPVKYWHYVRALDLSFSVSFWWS
UniProt Q6YP21: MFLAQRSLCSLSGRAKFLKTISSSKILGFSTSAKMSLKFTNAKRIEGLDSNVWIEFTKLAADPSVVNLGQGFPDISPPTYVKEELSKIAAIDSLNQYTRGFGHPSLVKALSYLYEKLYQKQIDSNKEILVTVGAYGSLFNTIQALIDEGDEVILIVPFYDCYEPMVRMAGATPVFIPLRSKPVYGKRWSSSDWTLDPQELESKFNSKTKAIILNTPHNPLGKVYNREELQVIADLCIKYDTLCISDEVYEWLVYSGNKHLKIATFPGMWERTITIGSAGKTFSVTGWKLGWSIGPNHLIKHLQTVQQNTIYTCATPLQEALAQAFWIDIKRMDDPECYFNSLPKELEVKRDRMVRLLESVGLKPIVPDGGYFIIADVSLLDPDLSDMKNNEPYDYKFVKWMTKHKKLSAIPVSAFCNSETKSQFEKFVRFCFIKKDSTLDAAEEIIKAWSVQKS
UniProt Q15058: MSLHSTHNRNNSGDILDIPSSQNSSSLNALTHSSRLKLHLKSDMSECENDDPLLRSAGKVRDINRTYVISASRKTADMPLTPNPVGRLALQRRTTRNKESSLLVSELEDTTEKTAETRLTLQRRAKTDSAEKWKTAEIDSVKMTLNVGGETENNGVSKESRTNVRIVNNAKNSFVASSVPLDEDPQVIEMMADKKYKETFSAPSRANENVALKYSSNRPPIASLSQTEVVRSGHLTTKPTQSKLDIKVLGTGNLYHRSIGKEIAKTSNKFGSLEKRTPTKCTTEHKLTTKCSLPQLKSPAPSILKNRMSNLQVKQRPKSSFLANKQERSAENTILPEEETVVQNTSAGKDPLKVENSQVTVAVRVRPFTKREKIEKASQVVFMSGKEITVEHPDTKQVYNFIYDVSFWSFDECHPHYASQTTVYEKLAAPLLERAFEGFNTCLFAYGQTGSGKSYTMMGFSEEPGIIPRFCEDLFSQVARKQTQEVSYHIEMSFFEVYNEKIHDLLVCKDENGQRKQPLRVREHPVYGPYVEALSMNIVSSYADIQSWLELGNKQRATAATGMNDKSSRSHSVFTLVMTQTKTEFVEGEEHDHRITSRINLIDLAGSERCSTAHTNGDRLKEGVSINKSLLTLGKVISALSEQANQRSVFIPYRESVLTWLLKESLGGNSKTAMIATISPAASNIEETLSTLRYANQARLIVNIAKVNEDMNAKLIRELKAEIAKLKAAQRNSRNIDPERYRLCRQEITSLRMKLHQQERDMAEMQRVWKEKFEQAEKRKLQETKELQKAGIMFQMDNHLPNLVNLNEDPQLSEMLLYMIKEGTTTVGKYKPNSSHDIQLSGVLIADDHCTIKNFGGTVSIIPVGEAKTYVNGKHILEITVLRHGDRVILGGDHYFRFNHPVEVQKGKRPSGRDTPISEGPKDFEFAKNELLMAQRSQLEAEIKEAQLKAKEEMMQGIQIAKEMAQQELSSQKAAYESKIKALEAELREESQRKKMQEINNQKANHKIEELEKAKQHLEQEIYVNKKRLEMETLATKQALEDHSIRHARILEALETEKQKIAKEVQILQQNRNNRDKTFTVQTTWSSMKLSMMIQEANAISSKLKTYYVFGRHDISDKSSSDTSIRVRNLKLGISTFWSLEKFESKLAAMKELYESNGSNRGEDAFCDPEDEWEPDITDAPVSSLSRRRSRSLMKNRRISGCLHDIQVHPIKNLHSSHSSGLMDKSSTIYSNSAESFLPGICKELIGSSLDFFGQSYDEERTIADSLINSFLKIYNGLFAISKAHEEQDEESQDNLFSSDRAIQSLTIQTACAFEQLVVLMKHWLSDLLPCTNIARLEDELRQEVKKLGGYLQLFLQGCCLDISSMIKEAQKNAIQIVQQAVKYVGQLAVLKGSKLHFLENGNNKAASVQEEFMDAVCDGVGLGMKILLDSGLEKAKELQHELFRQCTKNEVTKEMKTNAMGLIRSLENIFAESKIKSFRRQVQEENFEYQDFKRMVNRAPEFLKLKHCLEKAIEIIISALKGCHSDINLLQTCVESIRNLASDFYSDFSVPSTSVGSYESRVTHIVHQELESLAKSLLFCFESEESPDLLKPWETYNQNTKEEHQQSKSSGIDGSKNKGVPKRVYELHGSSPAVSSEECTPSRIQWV
UniProt Q9NSK0: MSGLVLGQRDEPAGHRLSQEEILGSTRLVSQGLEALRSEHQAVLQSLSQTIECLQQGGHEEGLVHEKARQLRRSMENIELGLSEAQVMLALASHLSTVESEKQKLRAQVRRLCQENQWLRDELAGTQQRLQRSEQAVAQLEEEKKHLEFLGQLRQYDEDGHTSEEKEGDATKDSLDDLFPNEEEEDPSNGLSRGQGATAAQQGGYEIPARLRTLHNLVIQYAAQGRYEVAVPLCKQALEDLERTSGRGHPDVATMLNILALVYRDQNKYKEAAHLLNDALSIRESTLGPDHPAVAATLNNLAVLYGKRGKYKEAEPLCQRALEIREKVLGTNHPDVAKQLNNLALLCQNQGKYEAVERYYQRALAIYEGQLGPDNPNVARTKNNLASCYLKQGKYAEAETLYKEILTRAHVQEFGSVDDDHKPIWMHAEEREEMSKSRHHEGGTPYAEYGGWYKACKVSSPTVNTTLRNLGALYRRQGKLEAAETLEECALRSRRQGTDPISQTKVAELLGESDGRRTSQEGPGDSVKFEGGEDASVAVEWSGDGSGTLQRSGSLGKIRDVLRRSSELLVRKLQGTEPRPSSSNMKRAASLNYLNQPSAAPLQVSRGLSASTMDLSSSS
UniProt Q8N6L1: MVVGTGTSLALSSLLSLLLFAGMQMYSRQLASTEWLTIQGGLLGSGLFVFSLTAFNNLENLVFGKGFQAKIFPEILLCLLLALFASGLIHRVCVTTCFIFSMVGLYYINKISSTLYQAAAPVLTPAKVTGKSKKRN

[1] = compound: Cc1nc(Nc2n[nH]c3c2CN(C(=O)N[C@H](CN(C)C)c2ccccc2)C3(C)C)c2sccc2n1
Procedure, shortened: as §1

dasatinib = compound: Cc1nc(Nc2ncc(C(=O)Nc3c(C)cccc3Cl)s2)cc(N2CCN(CCO)CC2)n1 [dasatinib]
Procedure, shortened: as §1

[2] = compound: Cc1ncc(-c2ccnc(Nc3ccc(S(C)(=O)=O)cc3)n2)n1C(C)C
Procedure, shortened: as §1

[3] = compound: Cn1cc(-c2ccc3c(c2)CCN3C(=O)Cc2cccc(C(F)(F)F)c2)c2c(N)ncnc21
Procedure, shortened: as §1

quisinostat = compound: Cn1cc(CNCC2CCN(c3ncc(C(=O)NO)cn3)CC2)c2ccccc21 [quisinostat]
Procedure, shortened: as §1

tipifarnib = compound: Cn1cncc1[C@@](N)(c1ccc(Cl)cc1)c1ccc2c(c1)c(-c1cccc(Cl)c1)cc(=O)n2C [tipifarnib]
Procedure, shortened: as §1

[4] = compound: NC(=O)Nc1cc(-c2cccc(F)c2)sc1C(=O)N[C@H]1CCCNC1
Procedure, shortened: as §1

[5] = compound: NC(=O)c1cnc(N[C@@H]2CCCC[C@@H]2N)nc1Nc1cccc(-n2nccn2)c1
Procedure, shortened: as §1

[6] = compound: NC1(c2ccc(-c3nc4ccn5c(=O)[nH]nc5c4cc3-c3ccccc3)cc2)CCC1
Procedure, shortened: as §1

[7] = compound: NCC(=O)Nc1ccc(-n2nc(C(F)(F)F)cc2-c2ccc3c(ccc4ccccc43)c2)cc1
Procedure, shortened: as §1

vorinostat = compound: O=C(CCCCCCC(=O)Nc1ccccc1)NO [vorinostat]
Procedure, shortened: as §1

silmitasertib = compound: O=C(O)c1ccc2c(c1)nc(Nc1cccc(Cl)c1)c1ccncc12 [silmitasertib]
Procedure, shortened: as §1

[8] = compound: O=C1NC(=O)C(c2cnc3ccccn23)=C1c1cn2c3c(cc(F)cc13)CN(C(=O)N1CCCCC1)CC2
Procedure, shortened: as §1

entospletinib = compound: c1cn2cc(-c3ccc4cn[nH]c4c3)nc(Nc3ccc(N4CCOCC4)cc3)c2n1 [entospletinib]
Procedure, shortened: as §1

| Target | log2 fold change (nilotinib) | log2 fold change [1] | log2 fold change (dasatinib) | log2 fold change [2] | log2 fold change [3] | log2 fold change (quisinostat) | log2 fold change (tipifarnib) | log2 fold change [4] | log2 fold change [5] | log2 fold change [6] | log2 fold change [7] | log2 fold change (vorinostat) | log2 fold change (silmitasertib) | log2 fold change [8] | log2 fold change (entospletinib) |
| --- | --- | --- | --- | --- | --- | --- | --- | --- | --- | --- | --- | --- | --- | --- | --- |
| KIAA1324L (UniProt A8MWY0) | inactive: 0.122 | inactive: -0.042 | inactive: 0.031 | inactive: 0.031 | inactive: 0.018 | inactive: -0.059 | inactive: 0.054 | inactive: 0.029 | inactive: -0.004 | inactive: 0.014 | inactive: -0.013 | inactive: 0.08 | inactive: -0.004 | inactive: 0.036 | inactive: -0.017 |
| KMT2D isoform 3 (UniProt O14686) | inactive: 0.029 | inactive: -0.012 | inactive: -0.009 | inactive: 0.004 | inactive: -0.004 | inactive: -0.028 | inactive: -0.043 | inactive: 0.021 | inactive: 0.001 | inactive: 0.012 | inactive: 0 | inactive: -0.157 | inactive: -0.027 | inactive: -0.004 | inactive: -0.047 |
| KLHL36 (UniProt Q8N4N3) | inactive: 0.012 | inactive: -0.104 | inactive: -0.021 | inactive: 0.027 | inactive: 0.049 | inactive: 0.043 | inactive: 0.067 | inactive: 0.007 | inactive: -0.023 | inactive: -0.014 | inactive: 0.059 | inactive: -0.161 | inactive: 0.082 | inactive: -0.037 | inactive: -0.006 |
| LAP3 (UniProt P28838) | inactive: 0.045 | inactive: -0.006 | inactive: -0.047 | inactive: 0.016 | inactive: -0.123 | inactive: -0.192 | inactive: -0.008 | inactive: 0.049 | inactive: 0.009 | inactive: -0.137 | inactive: 0.048 | inactive: 0.082 | inactive: -0.104 | inactive: 0.104 | inactive: -0.008 |
| KIAA0319L (UniProt Q8IZA0) | inactive: 0 | inactive: -0.038 | inactive: 0.035 | inactive: -0.019 | inactive: 0.011 | inactive: 0.049 | inactive: -0.031 | inactive: 0.007 | inactive: -0.009 | inactive: 0.009 | inactive: -0.002 | inactive: 0.116 | inactive: -0.002 | inactive: -0.008 | inactive: -0.027 |
| KPNA1 (UniProt P52294) | inactive: -0.025 | inactive: -0.01 | inactive: -0.04 | inactive: -0.009 | inactive: -0.002 | inactive: -0.038 | inactive: -0.038 | inactive: 0.024 | inactive: 0.011 | inactive: 0.008 | inactive: 0.004 | inactive: -0.14 | inactive: -0.003 | inactive: -0.032 | inactive: -0.006 |
| KHDRBS1 (UniProt Q07666) | inactive: -0.032 | inactive: -0.012 | inactive: -0.048 | inactive: -0.011 | inactive: -0.003 | inactive: 0.037 | inactive: 0.032 | inactive: 0.005 | inactive: 0.011 | inactive: 0.028 | inactive: 0.005 | active: -0.583 | inactive: 0.018 | inactive: 0.016 | inactive: 0.008 |
| KNOP1 (UniProt Q1ED39) | inactive: -0.09 | inactive: 0.055 | inactive: -0.028 | inactive: -0.095 | inactive: -0.001 | inactive: -0.169 | inactive: -0.01 | inactive: 0.007 | inactive: 0.048 | inactive: -0.062 | inactive: 0.019 | inactive: 0.063 | inactive: 0.005 | inactive: 0.03 | inactive: -0.035 |
| KDM8 isoform 3 (UniProt Q8N371) | inactive: -0.001 | inactive: 0.015 | inactive: 0.02 | inactive: 0 | inactive: 0.05 | inactive: -0.016 | inactive: -0.065 | inactive: 0.041 | inactive: 0.009 | inactive: -0.025 | inactive: -0.003 | inactive: -0.074 | inactive: -0.069 | inactive: -0.002 | inactive: 0.028 |
| LAGE3 (UniProt Q14657) | inactive: -0.065 | inactive: 0.186 | inactive: 0.006 | inactive: -0.055 | inactive: 0.021 | inactive: -0.03 | inactive: 0.1 | inactive: 0.013 | inactive: 0.017 | inactive: 0.084 | inactive: 0.045 | inactive: -0.085 | inactive: -0.016 | inactive: -0.041 | inactive: -0.043 |
| LACTB (UniProt P83111) | inactive: 0.095 | inactive: -0.005 | inactive: 0.035 | inactive: 0.003 | inactive: -0.011 | inactive: 0.001 | inactive: 0.036 | inactive: 0.023 | inactive: -0.027 | inactive: 0.033 | inactive: 0.038 | inactive: 0.011 | inactive: 0.01 | inactive: -0.033 | inactive: 0.059 |
| KLC2 (UniProt Q9H0B6) | inactive: 0.016 | inactive: 0.013 | inactive: -0.062 | inactive: 0.067 | inactive: 0.041 | inactive: -0.017 | inactive: 0.063 | inactive: 0.012 | inactive: 0.013 | inactive: -0.036 | inactive: 0.01 | active: -0.348 | inactive: -0.005 | inactive: -0.061 | inactive: 0.034 |
| KYAT3 (UniProt Q6YP21) | inactive: 0 | inactive: -0.029 | inactive: 0.027 | inactive: -0.029 | inactive: 0.017 | inactive: -0.021 | inactive: 0.013 | inactive: -0.024 | inactive: -0.014 | inactive: -0.008 | inactive: -0.017 | inactive: 0.107 | inactive: -0.022 | inactive: 0.036 | inactive: -0.008 |
| KIF14 (UniProt Q15058) | inactive: 0.003 | inactive: 0.042 | inactive: -0.035 | inactive: 0.033 | inactive: 0.007 | inactive: -0.139 | inactive: -0.046 | inactive: 0 | inactive: 0.001 | inactive: -0.024 | inactive: 0.082 | active: -0.286 | inactive: -0.016 | inactive: -0.019 | inactive: -0.055 |
| KLC4 isoform 3 (UniProt Q9NSK0) | inactive: -0.023 | inactive: 0.047 | inactive: -0.013 | inactive: 0.089 | inactive: 0.048 | inactive: -0.018 | inactive: -0.015 | inactive: 0.01 | inactive: 0.021 | inactive: -0.003 | inactive: 0.01 | active: -0.557 | inactive: 0.009 | inactive: -0.041 | inactive: -0.006 |
| KRTCAP2 isoform 2 (UniProt Q8N6L1) | inactive: -0.023 | inactive: -0.021 | inactive: -0.059 | inactive: 0.097 | inactive: -0.045 | inactive: -0.158 | inactive: 0.007 | inactive: 0.022 | inactive: 0.024 | inactive: 0.044 | inactive: 0 | inactive: 0.139 | inactive: -0.034 | inactive: 0.052 | inactive: 0.05 |
| LAMTOR1 (UniProt Q6IAA8) | inactive: 0.095 | inactive: 0.014 | inactive: 0.003 | inactive: 0.062 | inactive: 0.048 | inactive: 0.007 | inactive: 0.048 | inactive: 0.023 | inactive: -0.066 | inactive: 0.006 | inactive: -0.129 | inactive: 0.151 | inactive: 0.011 | inactive: 0.026 | inactive: -0.001 |
| LAMP2 (UniProt P13473) | inactive: -0.02 | inactive: 0.031 | inactive: 0.04 | inactive: -0.004 | inactive: 0.038 | inactive: 0.047 | inactive: -0.045 | inactive: -0.013 | inactive: -0.022 | inactive: 0.02 | inactive: -0.136 | inactive: 0.17 | inactive: -0.003 | inactive: -0.034 | inactive: -0.008 |
| KXD1 (UniProt Q9BQD3) | inactive: 0.055 | inactive: 0.083 | inactive: 0.03 | inactive: 0.024 | inactive: -0.023 | inactive: 0 | inactive: 0.1 | inactive: 0.01 | inactive: 0.084 | inactive: 0.019 | inactive: 0.008 | inactive: 0.026 | inactive: -0.019 | inactive: 0.068 | inactive: 0.016 |
| KHDC4 (UniProt Q7Z7F0) | inactive: -0.008 | inactive: 0.03 | inactive: -0.051 | inactive: 0.032 | inactive: -0.011 | inactive: 0.043 | inactive: -0.032 | inactive: 0.015 | inactive: -0.023 | inactive: 0.074 | inactive: -0.015 | inactive: 0.038 | inactive: -0.054 | inactive: -0.031 | inactive: 0.013 |

No new results follow: an excerpt of the list.

| Target | log2 fold change (nilotinib) | log2 fold change [1] | log2 fold change (dasatinib) | log2 fold change [2] | log2 fold change [3] | log2 fold change (quisinostat) | log2 fold change (tipifarnib) | log2 fold change [4] | log2 fold change [5] | log2 fold change [6] | log2 fold change [7] | log2 fold change (vorinostat) | log2 fold change (silmitasertib) | log2 fold change [8] | log2 fold change (entospletinib) |
| --- | --- | --- | --- | --- | --- | --- | --- | --- | --- | --- | --- | --- | --- | --- | --- |
| KIAA0319L (UniProt Q8IZA0) | inactive: 0 | inactive: -0.038 | inactive: 0.035 | inactive: -0.019 | inactive: 0.011 | inactive: 0.049 | inactive: -0.031 | inactive: 0.007 | inactive: -0.009 | inactive: 0.009 | inactive: -0.002 | inactive: 0.116 | inactive: -0.002 | inactive: -0.008 | inactive: -0.027 |
| KPNA1 (UniProt P52294) | inactive: -0.025 | inactive: -0.01 | inactive: -0.04 | inactive: -0.009 | inactive: -0.002 | inactive: -0.038 | inactive: -0.038 | inactive: 0.024 | inactive: 0.011 | inactive: 0.008 | inactive: 0.004 | inactive: -0.14 | inactive: -0.003 | inactive: -0.032 | inactive: -0.006 |
| KHDRBS1 (UniProt Q07666) | inactive: -0.032 | inactive: -0.012 | inactive: -0.048 | inactive: -0.011 | inactive: -0.003 | inactive: 0.037 | inactive: 0.032 | inactive: 0.005 | inactive: 0.011 | inactive: 0.028 | inactive: 0.005 | active: -0.583 | inactive: 0.018 | inactive: 0.016 | inactive: 0.008 |
| KNOP1 (UniProt Q1ED39) | inactive: -0.09 | inactive: 0.055 | inactive: -0.028 | inactive: -0.095 | inactive: -0.001 | inactive: -0.169 | inactive: -0.01 | inactive: 0.007 | inactive: 0.048 | inactive: -0.062 | inactive: 0.019 | inactive: 0.063 | inactive: 0.005 | inactive: 0.03 | inactive: -0.035 |
